Laboratory results as given in US7070807B2, “Branched histidine copolymers and methods for using same” (priority 1999, dated 2006).
At least one peptide structure holds a part that was inferred or is arguable (an end, a ring closure or a residue). Ends that are not written are not given here.

Tests used:
MDA-MB-435 cells = test: In vitro transfection with polymer:liposome:PCI-Luc complexes, luciferase activity; format: cell-based, human
Experimental: (§1) 4.5×10^4 cells (MDA-MB-435, NIH3T3 or CHO) were initially plated into 24 well dishes. After 48 hours, when the cells were 60 and 80% confluent, cells were transfected with a plasmid encoding luciferase (PCI-Luc). In transfection experiments, the copolymer was initially incubated with PCI-Luc for 30 minutes in OptiM. The amount of copolymer which varied from 0.25 nmole to 15 nmole was mixed with the plasmid or oligonucleotide. The concentration of DNA varied from 0.25 μg to 0.75 μg. No visible aggregation of the polymer with the plasmid DNA was apparent at these concentrations. Cationic liposomes were then added, gently mixed, and then allowed to stand for an additional 30 minutes. The polymer:liposome:DNA complex was then diluted with either OptiM or OptiM+10% serum. In experiments utilizing lysomotropic agents, either chloroquine (Sigma, St. Louis, Mo.) or bafilomycin Al (Sigma) was added to the media at concentrations of 10 ng/ml and 25 μM, respectively. Four hours after transfection, the complexes were removed and DMEM with 10% serum was added. Forty-eight hours later, luciferase levels were measured with the Turner 20/20 luminometer. Duplicates were done for each concentration and each experiment was performed twice.

CHO cells = test: as above; format: cell-based, Chinese hamster; settings: absence of serum, 7.5 nmole polymer
Experimental: as §1

NIH-3T3 cells = test: as above; format: cell-based; settings: absence of serum, 7.5 nmole polymer
Experimental: as §1

[1] = test system: MDA-MB-435 tumors in mammary fat pad of nude mice; test: In vivo intratumoral transfection with H-K: liposome: PCI-Luc, luciferase activity; settings: intratumoral injection, 22 nmole polymer, 42 nmole liposomes, 2.34 μg DNA; 24 hours after injection
[2] = test system: mice with 66.1 cell lung metastases; test: Intravenous delivery of polymer:liposome:PCI-Luc, lung luciferase activity; format: in vivo; settings: complex with DOTAP/cholesterol liposomes, tumor laden mice, lungs six hours later
Experimental: FIG. 19. Branched transport polymer in combination with liposomes enhanced transfection efficiency when administered intravenously. Two weeks prior to injection of complex, 1.0×10^5 of 66.1 cells (a murine breast cancer cell line) were injected into mice to establish lung metastases. 6 μg of HH-K4b (volume-60 μl) was mixed with 30 μg of PCI-Luc (volume-60 μl). After 40 min, 18 μg of liposomes (DOTAP:cholesterol, volume-60 μl) was added and gently mixed for another 30 min. Total volume of the polymer: liposome: DNA solution is 180 μl. 0.28 μl of 1 M Hepes was mixed with H-K or HH-K4b solution, respectively, to neutralize to approximately pH-7.0. Liposome in complex with PCI-Luc complexes were prepared similarly. 150 μl of the complex solution was injected via the tail vein into the mice. Six hours later, the lungs were homogenized and the luciferase activity was measured in each group.
The liposomes were composed of DOTAP and cholesterol in a 1 to 1 molar ratio.

KHKHKHKHKGKHKHKHKHK-NH2 [H-K (19-mer), [K-H-K-H-K-H-K-H-K-G-K-H-K-H-K-H-K-H-K]]
transfection efficiency of the liposome: PCI-Luc complex, polymer vs no polymer (length comparison) (MDA-MB-435 cells; 7.5 nmole polymer): increased the transfection efficiency
transfection efficiency compared to the 13 mer (MDA-MB-435 cells; 7.5 nmole polymer with liposome and DNA): increased transfection efficiency more than the 13 mer
increase of transfection efficiency compared to the liposome: PCI-Luc complex (MDA-MB-435 cells; absence of serum, polymer + DOTAP liposomes + PCI-Luc): up to 10 fold
transfection efficiency of Superfect (Qiagen) dendrimer delivery system with polymer (MDA-MB-435 cells; data not shown, cell line not stated): enhanced the transfection efficiency
transfection efficiency relative to liposome:PCI-Luc complexes alone (MDA-MB-435 cells; in the presence of serum (10%)): 100 fold
transfection effectiveness relative to poly-L-lysine (PLL) (MDA-MB-435 cells; in the presence of serum, 25 μg polymer, 0.75 μg DNA, 1.5 μg liposomes): about 50 times
transfection efficiency / uptake of liposomes (sequence order comparison) (MDA-MB-435 cells; presence or absence of serum, polymer mixed with DNA then liposomes, cell line not stated): accelerated useful transfection efficiency
transfection efficiency of liposome: DNA complexes with polymer vs without (CHO cells): increased transfection efficiency
transfection efficiency of liposome: DNA complexes with polymer vs without (NIH-3T3 cells): increased transfection efficiency
enhancement of luciferase activity in tumors compared to liposome: PCI-Luc [1]: 15 fold
gene (luciferase) expression compared to liposomes only [2]: 2.5 fold
